# Data taken from PubChem BioAssay AID2685 (National Center for Advancing Translational Sciences (NCATS), 2010).
# The campaign covered roughly 320,000 compounds. About 2,100 (0.66%) were called active. Inconclusive results, whose numbers are uncertain, are shown with a selection of clear calls. The call rests on the fitted dose curve; in most records, active means well fitted inhibition curve with a large enough effect in the signal ratio, with a control signal flat (not every such curve was filed as active); inconclusive means small, poorly fitted or top-dose-only effect, or effect the other way, or a change in a side signal; inactive means flat fitted curve, though single readings scatter; the % refers to the signal ratio. Potencies beside an inconclusive call are fits to weak or partial responses and may not hold up.
# Assay: qHTS Assay for Lipid Storage Modulators in Drosophila S3 Cells
# Settings: BODIPY lipid droplet fluorescence, 18-24 h, cells fed with added oleic acid; lipid storage change, negative = inhibition: at 46.1 µM (top of the series) unless noted
# How it was run: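 Drosophila S3 cells got compounds at several concentrations plus oleic acid (400 uM solution). Laser-scanning cytometry with 488 nm excitation read lipid droplets at 500-530 nm and cells at 575-640 nm. Percent activity was relative to 20 uM Triacsin C.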
# On the % scale 0 is the no-effect control and ±100 the full control effect; potency means the concentration at half of the fitted maximal effect.
SMILES,"lipid storage change, negative = inhibition",Potency
COc1ccc(NC(=O)CCNS(=O)(=O)c2cccc3nsnc23)cc1OC,inconclusive: 1.56%,–
CC(NCc1ccco1)C(=O)N1CCc2ccccc2C1 (stereo not drawn),–,"inconclusive: 0.0731 µM [falling, full curve]"
CCN1CCN(S(=O)(=O)c2cc(OC)c(Cl)cc2OC)CC1,–,"inconclusive: 29.1 µM [falling, single point]"
O=c1oc(-c2ccccc2[N+](=O)[O-])nc2ccccc12,–,"inconclusive: 29.1 µM [cytotoxic, single point]"
CC1CCCCN1S(=O)(=O)c1ccc(C(=O)Nc2nnc(-c3ccccc3Cl)o2)cc1 (stereo not drawn),–,"inconclusive: 1.84 µM [activator, partial curve, poor fit]"
C=CCc1cccc(/C=N/NC(=O)COc2ccc(-n3cnnn3)cc2)c1O,inconclusive: -23.2%,–
C=CCOc1ccc(/C=N/NC(=O)C(=O)N2CCCCCC2)cc1OC,inconclusive: -43%,–
COc1ccc(C(=O)NCc2nnc(SCC(=O)c3ccccc3)o2)cc1,–,"inconclusive: 25.9 µM [activator, partial curve]"
Cc1nn(Cc2ccccc2)c(=O)n1N(C)c1ncc(C(F)(F)F)cc1Cl,inconclusive: 28.8%,–
CN1C=CC=C/C1=C1\SC(=S)N(N)C1=O,inconclusive: -9.7%,–
CN(CCOc1ccccc1)c1ccc(S(=O)(=O)N2CCCCC2)cn1,–,"inconclusive: 10.3 µM [activator, partial curve]"
COCc1c(C(=O)N2CCN(CCOc3ccccc3)CC2)oc2ccccc12,–,"inconclusive: 4.11 µM [activator, full curve, poor fit]"
CCOC(=O)C1=C(CC)Nc2ccccc2N=C1NC(=O)c1cccc(S(=O)(=O)N2CCOCC2)c1,–,"inconclusive: 29.1 µM [activator, single point]"
COc1ccc(CC(=O)Nc2ccc(S(=O)(=O)N(C)C3CCN(C)CC3)cc2)cc1,inconclusive: -6.11%,–
O=C(CCl)N1CCN(S(=O)(=O)c2ccc3c(c2)CCC3)CC1,inconclusive: 5.49%,–
CC(C)(C)c1ccc(C(=O)Nc2cccc3c(=O)[nH][nH]c(=O)c23)cc1,inconclusive: 17.5%,–
CN(CC(=O)Nc1ccc(Cl)c(Cl)c1)C1CCCCC1,–,"inconclusive: 29.1 µM [falling, single point]"
CC(=O)c1ccc(N(C(=O)CNC(=O)c2ccco2)C(C(=O)NC2CCCC2)c2ccco2)cc1 (stereo not drawn),inconclusive: 69.6%,–
O=C(O)c1ccc(-n2cccc2/C=C2/SC(=O)N(CC(=O)N3CCCC3)C2=O)cc1,inconclusive: 189%,–
CN1c2ccccc2C(=O)/C(=C\Nc2ccc(F)cc2)S1(=O)=O,–,"inconclusive: 0.164 µM [falling, full curve, poor fit]"
CN1CCN(c2ccc(CNS(=O)(=O)Cc3cccc(C(F)(F)F)c3)cc2)CC1,–,"inconclusive: 29.1 µM [falling, single point]"
Cc1nc(SCC(=O)NCCc2ccc(Cl)cc2)nc(C)c1C,–,"inconclusive: 0.206 µM [activator, full curve]"
CC(C)OC(=O)CC(=O)CSc1nc(-c2ccc(F)cc2)cc(-c2ccccc2)c1C#N,inconclusive: 15.8%,–
Cc1cc(NC(=O)c2cc3n(n2)C(C(F)(F)F)CC(c2ccco2)N3)n(-c2ccccc2)n1 (stereo not drawn),–,"inconclusive: 0.411 µM [rising, full curve]"
O=C(Nc1cccc(Oc2ccc3c(c2)C(=O)NC3=O)c1)c1cccs1,–,"inconclusive: 20.6 µM [falling, partial curve]"

# Whole records as entered above:
# O=C(O)c1ccc(-n2cccc2/C=C2/SC(=O)N(CC(=O)N3CCCC3)C2=O)cc1 in the list: lipid storage change, negative = inhibition: inconclusive: 189%
# CCOC(=O)C1=C(CC)Nc2ccccc2N=C1NC(=O)c1cccc(S(=O)(=O)N2CCOCC2)c1 in the list: Potency: inconclusive: 29.1 µM [activator, single point]

# Additional compounds.

SMILES,"lipid storage change, negative = inhibition",Potency
CCOC(=O)c1ccc(NCc2ccc3c(c2)OCO3)cc1,–,"inconclusive: 20.6 µM [falling, partial curve, poor fit]"
O=S(=O)(c1cc(Cl)ccc1Cl)N1CCN(c2ccccn2)CC1,inconclusive: -41%,–
O=[N+]([O-])c1cc(S(=O)(=O)c2ccc(N3CCCCC3)c([N+](=O)[O-])c2)ccc1N1CCCCC1,inconclusive: -20.8%,–
COc1ccc(N2C(=O)C(CN3CCN(C)CC3)C2c2ccccc2)cc1 (stereo not drawn),inconclusive: 14.8%,–
CC(C)Oc1ccc(/C=N/NC(=O)C2CCCN2S(=O)(=O)c2ccc(Cl)cc2)cc1 (stereo not drawn),–,"inconclusive: 0.58 µM [activator, full curve]"
CC(=O)c1cccc(NS(=O)(=O)c2ccc(-c3cnc(C4CC4)o3)cc2)c1,–,"inconclusive: 11.6 µM [falling, single point]"
Cc1cc2c(cc1S(=O)(=O)N1CC(C)CC(C)C1)OCC(=O)N2 (stereo not drawn),inconclusive: 1.46%,–
COCCn1c(SCC(=O)Nc2cccc(S(N)(=O)=O)c2)nc2ccccc21,inconclusive: 1.23%,–
Brc1cccc(CNCc2ccncc2)c1,inconclusive: -36.3%,–
O=C(CNC(=O)c1ccccc1F)NCCOc1ccccc1Cl,inconclusive: 27.2%,–
Cn1ccnc1CC(O)(c1ccccc1)c1ccccc1,inconclusive: 16.6%,–
Cc1cc(Cn2nnc(-c3ccc(Br)cc3)n2)cc(C)c1O,–,"inconclusive: 18.4 µM [rising, partial curve]"
COc1ccc(C(=O)c2ccccc2)c(OCC(=O)N(C)C)c1,inconclusive: -37% [at 0.369 µM],–
C[C@H](NC(=O)c1nc[nH]c1C(=O)N1CCN(c2ccccc2)CC1)C(=O)OCc1ccccc1,inconclusive: -32.9%,–
COc1ccc(N(C)S(=O)(=O)c2cccc(C(=O)Nc3nnc(C)s3)c2)cc1,inactive,–
COc1ccc(-c2c(-c3ccc(OCC(=O)NN)cc3O)n[nH]c2C(F)(F)F)cc1,inconclusive: -11.4%,–
Cc1cccc(NC(=S)N2CCN(c3ccccn3)CC2)c1,–,"inconclusive: 0.103 µM [activator, full curve, poor fit]"
CSc1ncc(C(C)=O)c(C)n1,inconclusive: -32.9%,–
Cc1cccc(CCN2C(N(C)C)=NC[C@@H]2C)c1,inconclusive: -6.69%,–
CCOc1ccc(N(CC(=O)NCc2cccc(OC)c2)S(=O)(=O)c2c(C)noc2C)cc1,inconclusive: 43.6%,–
CCN1C(=O)[C@H]2[C@@H](c3ccc(C)cc3)N3C(=O)N(c4cccc(Cl)c4)C(=O)[C@@]3(Cc3ccccc3)[C@H]2C1=O,inconclusive: 14.2%,–
C/C(=N/NC(=O)c1ccncc1)c1cc2ccc(O)cc2oc1=O,–,"inconclusive: 1.3 µM [falling, full curve, poor fit]"
O=C(Nc1ccc(S(=O)(=O)NCc2ccco2)cc1)C1CCCCC1,inconclusive: -25.6%,–
C/C(=N\Nc1nc2ccccc2s1)c1cccs1,inconclusive: 36.9%,–
Cc1ccc(C(=O)COC(=O)CCN2C(=O)C3C4C=CC(C5CC45)C3C2=O)cc1 (stereo not drawn),inconclusive: 30.2%,–

SMILES,"lipid storage change, negative = inhibition",Potency
Cc1cc([N+](=O)[O-])cc2ncccc12,–,"inconclusive: 0.651 µM [rising, single point]"
O=C(OCCCN=C1NS(=O)(=O)c2ccccc21)c1ccccc1,–,"inconclusive: 23.1 µM [falling, single point]"
COc1ccc(S(=O)(=O)Nc2ccc3ccccc3c2)cc1C,inconclusive: -11.7%,–
COCCNC(=O)Nc1ccc2c(c1)N(C)C(=O)CS2,inconclusive: -13.8%,–
CCN(CC)c1nc(C#N)nc(N(CC)CC)n1,inconclusive: 12.4%,–
Cn1c(NCCCO)nc2c1c(=O)n(Cc1ccccc1F)c(=O)n2C,–,"inconclusive: 6.51 µM [falling, single point]"
O=c1c2cnn(-c3ccccc3Cl)c2ncn1Cc1cccnc1,inconclusive: 14.3%,–
COc1ccc(C(=O)CC(SCC(NC(C)=O)C(=O)O)c2ccc(Cl)cc2)cc1OC (stereo not drawn),–,"inconclusive: 20.6 µM [falling, single point]"
CCc1ccc(NC(=O)C2CC=CCC2C(=O)O)cc1 (stereo not drawn),inconclusive: -16.3%,–
O=C(Cn1cc2c(n1)CCCC2)NCCCN1CCN(c2ccccc2F)CC1,inconclusive: 17.2% [at 9.22 µM],–
N#C/C(=C(/O)CSc1nnc(Cc2cccs2)n1C1CCCCC1)c1nc2ccccc2[nH]1,–,"inconclusive: 1.3 µM [activator, full curve, poor fit]"
Cc1ccc(NC(=O)CSCC(=O)Nc2cccc(S(=O)(=O)N3CCCCCC3)c2)cc1,–,"inconclusive: 29.1 µM [falling, single point]"
COc1ccc(S(=O)(=O)N(CC(=O)NC2CC2)c2ccc(C)cc2)cc1OC,inconclusive: 20.8%,–
C=CCSc1nc2ccccc2c(=O)[nH]1,inconclusive: -25.6% [at 9.22 µM],–
O=C(CNc1ccccc1)N/N=C/c1ccc([N+](=O)[O-])cc1,inconclusive: 8.82%,–
O=C(/C=C/c1ccccc1)N(Cc1cccc(Cl)c1)C1CCS(=O)(=O)C1 (stereo not drawn),–,"inconclusive: 0.0046 µM [activator, full curve, poor fit]"
CCCS(=O)(=O)c1cscc1NC(=O)c1c(-c2c(F)cccc2Cl)noc1C,inconclusive: 5.92%,–
Cc1nc(NC(C)c2ccccc2)c2oc3ccccc3c2n1 (stereo not drawn),inconclusive: -55.1%,–
Cn1nnnc1SCc1cccc(CSc2nnnn2C)n1,inconclusive: 12.2%,–
Cc1ccccc1CSc1nnc2ccc(-c3ccncc3)nn12,inconclusive: -6.4%,–
CCN(C(=O)CSc1nnc(C(C)N(C)C)n1-c1ccc(F)cc1)C1CCS(=O)(=O)C1 (stereo not drawn),–,"inconclusive: 0.0651 µM [activator, full curve, poor fit]"
Cc1cccc(C(=O)NC(=S)Nc2cccc3nc(C)ccc23)c1,inconclusive: -18.7%,–
Cc1cc(C)c(S(=O)(=O)NCc2cccnc2)cc1C,–,"inconclusive: 0.164 µM [falling, full curve, poor fit]"

# Already shown: an excerpt of the list.
SMILES,"lipid storage change, negative = inhibition",Potency
O=C(OCCCN=C1NS(=O)(=O)c2ccccc21)c1ccccc1,–,"inconclusive: 23.1 µM [falling, single point]"
COc1ccc(S(=O)(=O)Nc2ccc3ccccc3c2)cc1C,inconclusive: -11.7%,–
COCCNC(=O)Nc1ccc2c(c1)N(C)C(=O)CS2,inconclusive: -13.8%,–
